Results are given in words; binding and its absence hold for the method and conditions named. Some binding calls cover weakened binding; strength is not graded here. Tags and fused reporters may be left off the sequences shown.
T1: T. thermophilus Pex12 (1–439) with an N-terminal SBP tag (Thermothelomyces thermophilus) (UniProt G2Q5N0)
T1 sequence: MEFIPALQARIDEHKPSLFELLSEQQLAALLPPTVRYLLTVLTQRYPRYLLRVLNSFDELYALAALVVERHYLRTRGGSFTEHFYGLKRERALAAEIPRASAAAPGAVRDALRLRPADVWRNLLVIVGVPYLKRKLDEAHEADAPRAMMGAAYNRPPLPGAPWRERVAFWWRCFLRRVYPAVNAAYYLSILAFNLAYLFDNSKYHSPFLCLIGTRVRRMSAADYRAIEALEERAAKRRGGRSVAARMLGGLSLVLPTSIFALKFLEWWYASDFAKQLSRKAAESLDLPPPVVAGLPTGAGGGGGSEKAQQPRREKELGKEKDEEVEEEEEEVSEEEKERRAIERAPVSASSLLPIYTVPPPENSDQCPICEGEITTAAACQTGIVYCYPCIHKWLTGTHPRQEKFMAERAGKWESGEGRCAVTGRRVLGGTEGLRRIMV

T2: T. thermophilus Pex10 (1–454) (Thermothelomyces thermophilus) (UniProt G2Q0E2)
T2 sequence: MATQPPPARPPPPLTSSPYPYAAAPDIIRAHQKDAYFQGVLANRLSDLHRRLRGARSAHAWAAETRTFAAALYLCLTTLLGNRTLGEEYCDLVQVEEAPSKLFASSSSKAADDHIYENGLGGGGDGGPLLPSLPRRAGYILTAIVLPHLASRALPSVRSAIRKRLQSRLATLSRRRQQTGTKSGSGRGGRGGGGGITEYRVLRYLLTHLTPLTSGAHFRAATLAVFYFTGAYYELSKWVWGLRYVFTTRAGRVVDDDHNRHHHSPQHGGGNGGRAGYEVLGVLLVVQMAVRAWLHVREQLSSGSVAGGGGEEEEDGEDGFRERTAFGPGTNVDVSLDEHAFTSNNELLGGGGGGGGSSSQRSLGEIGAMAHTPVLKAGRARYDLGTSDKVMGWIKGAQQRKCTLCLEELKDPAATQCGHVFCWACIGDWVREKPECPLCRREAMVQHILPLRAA


Experiments:
[1] = molecular target: T1, T. thermophilus Pex12 (1–439) with an N-terminal SBP tag (Thermothelomyces thermophilus); assay: cryo-EM structure; Pex2–Pex10–Pex12–Fab complex in digitonin, PEGylated with MS(PEG)12; 3.1 Å overall resolution; both purified
[2] = molecular target: T2, T. thermophilus Pex10 (1–454) (Thermothelomyces thermophilus); assay: as above

binding [1] | binding [2] | Binder
binds |  | T. thermophilus Pex10 (1–454) (natural protein, Thermothelomyces thermophilus, UniProt G2Q0E2 1-454, looked up, Pex10 of Thermothelomyces thermophilus, residues 1-454; codon-optimised synthetic gene; also called T.t; Pex10; source: P. pastoris SMD1168, co-expressed with Pex2 and Pex12, purified (streptavidin resin, gel filtration) in digitonin) MATQPPPARPPPPLTSSPYPYAAAPDIIRAHQKDAYFQGVLANRLSDLHRRLRGARSAHAWAAETRTFAAALYLCLTTLLGNRTLGEEYCDLVQVEEAPSKLFASSSSKAADDHIYENGLGGGGDGGPLLPSLPRRAGYILTAIVLPHLASRALPSVRSAIRKRLQSRLATLSRRRQQTGTKSGSGRGGRGGGGGITEYRVLRYLLTHLTPLTSGAHFRAATLAVFYFTGAYYELSKWVWGLRYVFTTRAGRVVDDDHNRHHHSPQHGGGNGGRAGYEVLGVLLVVQMAVRAWLHVREQLSSGSVAGGGGEEEEDGEDGFRERTAFGPGTNVDVSLDEHAFTSNNELLGGGGGGGGSSSQRSLGEIGAMAHTPVLKAGRARYDLGTSDKVMGWIKGAQQRKCTLCLEELKDPAATQCGHVFCWACIGDWVREKPECPLCRREAMVQHILPLRAA
binds | binds | T. thermophilus Pex2 (140–495) (domain or fragment, Thermothelomyces thermophilus, UniProt G2Q1C9 140-495, looked up, Pex2 of Thermothelomyces thermophilus, residues 140-495; codon-optimised synthetic gene; also called T.t; Pex2; source: P. pastoris SMD1168, co-expressed with Pex10 and Pex12, purified (streptavidin resin, gel filtration) in digitonin) SREGTRPAFRVGQVDAELLDEELVELLRGQVREALRYVGGGGGGGGGGGGGGVGSGVAQDWEAEISLALRAVLFKLTVWDHDATYGAALQNLKYTDARRDGPALAPPSRWQKALYGLVTVGGRYLWAKWEDWLLEQDDGFEGPSPRVKRLARWTSALSTLHASAALVSFLVFLLHGRYRTLLDRLLRMRLAPPTSQVSREVSFEYLNRQLVWHAFTEFLLFVLPLVGINRWRRWLARTWRRTKKIMTADADGGAGDKKGEYSFLPERTCAICYRDQNSASSETELLAAASGGVVGSAQTDITNPYEAIPCGCTYCFVCLATRIEREEGEGWPCLRCGELIKECKPWNGDVLEEPQV
